Results are given in words; binding and its absence hold for the method and conditions named. Binding seen in cells or lysates may run through a third protein. These calls come from enrichment with a bait or labelling near it, and not all partners need be listed.
B1: JIP4 (protein, UniProt O60271 1-1321)
chain: MELEDGVVYQEEPGGSGAVMSERVSGLAGSIYREFERLIGRYDEEVVKELMPLVVAVLENLDSVFAQDQEHQVELELLRDDNEQLITQYEREKALRKHAEEKFIEFEDSQEQEKKDLQTRVESLESQTRQLELKAKNYADQISRLEEREAELKKEYNALHQRHTEMIHNYMEHLERTKLHQLSGSDQLESTAHSRIRKERPISLGIFPLPAGDGLLTPDAQKGGETPGSEQWKFQELSQPRSHTSLKVSNSPEPQKAVEQEDELSDVSQGGSKATTPASTANSDVATIPTDTPLKEENEGFVKVTDAPNKSEISKHIEVQVAQETRNVSTGSAENEEKSEVQAIIESTPELDMDKDLSGYKGSSTPTKGIENKAFDRNTESLFEELSSAGSGLIGDVDEGADLLGMGREVENLILENTQLLETKNALNIVKNDLIAKVDELTCEKDVLQGELEAVKQAKLKLEEKNRELEEELRKARAEAEDARQKAKDDDDSDIPTAQRKRFTRVEMARVLMERNQYKERLMELQEAVRWTEMIRASRENPAMQEKKRSSIWQFFSRLFSSSSNTTKKPEPPVNLKYNAPTSHVTPSVKKRSSTLSQLPGDKSKAFDFLSEETEASLASRREQKREQYRQVKAHVQKEDGRVQAFGWSLPQKYKQVTNGQGENKMKNLPVPVYLRPLDEKDTSMKLWCAVGVNLSGGKTRDGGSVVGASVFYKDVAGLDTEGSKQRSASQSSLDKLDQELKEQQKELKNQEELSSLVWICTSTHSATKVLIIDAVQPGNILDSFTVCNSHVLCIASVPGARETDYPAGEDLSESGQVDKASLCGSMTSNSSAETDSLLGGITVVGCSAEGVTGAATSPSTNGASPVMDKPPEMEAENSEVDENVPTAEEATEATEGNAGSAEDTVDISQTGVYTEHVFTDPLGVQIPEDLSPVYQSSNDSDAYKDQISVLPNEQDLVREEAQKMSSLLPTMWLGAQNGCLYVHSSVAQWRKCLHSIKLKDSILSIVHVKGIVLVALADGTLAIFHRGVDGQWDLSNYHLLDLGRPHHSIRCMTVVHDKVWCGYRNKIYVVQPKAMKIEKSFDAHPRKESQVRQLAWVGDGVWVSIRLDSTLRLYHAHTYQHLQDVDIEPYVSKMLGTGKLGFSFVRITALMVSCNRLWVGTGNGVIISIPLTETNKTSGVPGNRPGSVIRVYGDENSDKVTPGTFIPYCSMAHAQLCFHGHRDAVKFFVAVPGQVISPQSSSSGTDLTGDKAGPSAQEPGSQTPLKSMLVISGGEGYIDFRMGDEGGESELLGEDLPLEPSVTKAERSHLIVWQVMYGNE
B2: VPS39 (protein, UniProt Q96JC1 1-886)
chain: MHDAFEPVPILEKLPLQIDCLAAWEEWLLVGTKQGHLLLYRIRKDVVPADVASPESGSCNRFEVTLEKSNKNFSKKIQQIHVVSQFKILVSLLENNIYVHDLLTFQQITTVSKAKGASLFTCDLQHTETGEEVLRMCVAVKKKLQLYFWKDREFHELQGDFSVPDVPKSMAWCENSICVGFKRDYYLIRVDGKGSIKELFPTGKQLEPLVAPLADGKVAVGQDDLTVVLNEEGICTQKCALNWTDIPVAMEHQPPYIIAVLPRYVEIRTFEPRLLVQSIELQRPRFITSGGSNIIYVASNHFVWRLIPVPMATQIQQLLQDKQFELALQLAEMKDDSDSEKQQQIHHIKNLYAFNLFCQKRFDESMQVFAKLGTDPTHVMGLYPDLLPTDYRKQLQYPNPLPVLSGAELEKAHLALIDYLTQKRSQLVKKLNDSDHQSSTSPLMEGTPTIKSKKKLLQIIDTTLLKCYLHTNVALVAPLLRLENNHCHIEESEHVLKKAHKYSELIILYEKKGLHEKALQVLVDQSKKANSPLKGHERTVQYLQHLGTENLHLIFSYSVWVLRDFPEDGLKIFTEDLPEVESLPRDRVLGFLIENFKGLAIPYLEHIIHVWEETGSRFHNCLIQLYCEKVQGLMKEYLLSFPAGKTPVPAGEEEGELGEYRQKLLMFLEISSYYDPGRLICDFPFDGLLEERALLLGRMGKHEQALFIYVHILKDTRMAEEYCHKHYDRNKDGNKDVYLSLLRMYLSPPSIHCLGPIKLELLEPKANLQAALQVLELHHSKLDTTKALNLLPANTQINDIRIFLEKVLEENAQKKRFNQVLKNLLHAEFLRVQEERILHQQVKCIITEEKVCMVCKKKIGNSAFARYPNGVVVHYFCSKEVNPADT
B3: VPS41 (protein, UniProt P49754 1-854)
chain: MAEAEEQETGSLEESTDESEEEESEEEPKLKYERLSNGVTEILQKDAASCMTVHDKFLALGTHYGKVYLLDVQGNITQKFDVSPVKINQISLDESGEHMGVCSEDGKVQVFGLYSGEEFHETFDCPIKIIAVHPHFVRSSCKQFVTGGKKLLLFERSWMNRWKSAVLHEGEGNIRSVKWRGHLIAWANNMGVKIFDIISKQRITNVPRDDISLRPDMYPCSLCWKDNVTLIIGWGTSVKVCSVKERHASEMRDLPSRYVEIVSQFETEFYISGLAPLCDQLVVLSYVKEISEKTEREYCARPRLDIIQPLSETCEEISSDALTVRGFQENECRDYHLEYSEGESLFYIVSPRDVVVAKERDQDDHIDWLLEKKKYEEALMAAEISQKNIKRHKILDIGLAYINHLVERGDYDIAARKCQKILGKNAALWEYEVYKFKEIGQLKAISPYLPRGDPVLKPLIYEMILHEFLESDYEGFATLIREWPGDLYNNSVIVQAVRDHLKKDSQNKTLLKTLAELYTYDKNYGNALEIYLTLRHKDVFQLIHKHNLFSSIKDKIVLLMDFDSEKAVDMLLDNEDKISIKKVVEELEDRPELQHVYLHKLFKRDHHKGQRYHEKQISLYAEYDRPNLLPFLRDSTHCPLEKALEICQQRNFVEETVYLLSRMGNSRSALKMIMEELHDVDKAIEFAKEQDDGELWEDLILYSIDKPPFITGLLNNIGTHVDPILLIHRIKEGMEIPNLRDSLVKILQDYNLQILLREGCKKILVADSLSLLKKMHRTQMKGVLVDEENICESCLSPILPSDAAKPFSVVVFHCRHMFHKECLPMPSMNSAAQFCNICSAKNRGPGSAILEMKK
B4: VPS11 (protein, UniProt Q9H270 1-941)
chain: MAAYLQWRRFVFFDKELVKEPLSNDGAAPGATPASGSAASKFLCLPPGITVCDSGRGSLVFGDMEGQIWFLPRSLQLTGFQAYKLRVTHLYQLKQHNILASVGEDEEGINPLVKIWNLEKRDGGNPLCTRIFPAIPGTEPTVVSCLTVHENLNFMAIGFTDGSVTLNKGDITRDRHSKTQILHKGNYPVTGLAFRQAGKTTHLFVVTTENVQSYIVSGKDYPRVELDTHGCGLRCSALSDPSQDLQFIVAGDECVYLYQPDERGPCFAFEGHKLIAHWFRGYLIIVSRDRKVSPKSEFTSRDSQSSDKQILNIYDLCNKFIAYSTVFEDVVDVLAEWGSLYVLTRDGRVHALQEKDTQTKLEMLFKKNLFEMAINLAKSQHLDSDGLAQIFMQYGDHLYSKGNHDGAVQQYIRTIGKLEPSYVIRKFLDAQRIHNLTAYLQTLHRQSLANADHTTLLLNCYTKLKDSSKLEEFIKKKSESEVHFDVETAIKVLRQAGYYSHALYLAENHAHHEWYLKIQLEDIKNYQEALRYIGKLPFEQAESNMKRYGKILMHHIPEQTTQLLKGLCTDYRPSLEGRSDREAPGCRANSEEFIPIFANNPRELKAFLEHMSEVQPDSPQGIYDTLLELRLQNWAHEKDPQVKEKLHAEAISLLKSGRFCDVFDKALVLCQMHDFQDGVLYLYEQGKLFQQIMHYHMQHEQYRQVISVCERHGEQDPSLWEQALSYFARKEEDCKEYVAAVLKHIENKNLMPPLLVVQTLAHNSTATLSVIRDYLVQKLQKQSQQIAQDELRVRRYREETTRIRQEIQELKASPKIFQKTKCSICNSALELPSVHFLCGHSFHQHCFESYSESDADCPTCLPENRKVMDMIRAQEQKRDLHDQFQHQLKCSNDSFSVIADYFGRGVFNKLTLLTDPPTARLTSSLEAGLQRDLLMHSRRGT
B5: VPS16 (protein, UniProt Q9H269 1-839)
chain: MDCYTANWNPLGDSAFYRKYELYSMDWDLKEELRDCLVAAAPYGGPIALLRNPWRKEKAASVRPVLDIYSASGMPLASLLWKSGPVVSLGWSAEEELLCVQEDGAVLVYGLHGDFRRHFSMGNEVLQNRVLDARIFHTEFGSGVAILTGAHRFTLSANVGDLKLRRMPEVPGLQSAPSCWTVLCQDRVAHILLAVGPDLYLLDHAACSAVTPPGLAPGVSSFLQMAVSFTYRHLALFTDTGYIWMGTASLKEKLCEFNCNIRAPPKQMVWCSRPRSKERAVVVAWERRLMVVGDAPESIQFVLDEDSYLVPELDGVRIFSRSTHEFLHEVPAASEEIFKIASMAPGALLLEAQKEYEKESQKADEYLREIQELGQLTQAVQQCIEAAGHEHQPDMQKSLLRAASFGKCFLDRFPPDSFVHMCQDLRVLNAVRDYHIGIPLTYSQYKQLTIQVLLDRLVLRRLYPLAIQICEYLRLPEVQGVSRILAHWACYKVQQKDVSDEDVARAINQKLGDTPGVSYSDIAARAYGCGRTELAIKLLEYEPRSGEQVPLLLKMKRSKLALSKAIESGDTDLVFTVLLHLKNELNRGDFFMTLRNQPMALSLYRQFCKHQELETLKDLYNQDDNHQELGSFHIRASYAAEERIEGRVAALQTAADAFYKAKNEFAAKATEDQMRLLRLQRRLEDELGGQFLDLSLHDTVTTLILGGHNKRAEQLARDFRIPDKRLWWLKLTALADLEDWEELEKFSKSKKSPIGYLPFVEICMKQHNKYEAKKYASRVGPEQKVKALLLVGDVAQAADVAIEHRNEAELSLVLSHCTGATDGATADKIQRARAQAQKK
B6: VPS18 (protein, UniProt Q9P253 1-973)
chain: MASILDEYENSLSRSAVLQPGCPSVGIPHSGYVNAQLEKEVPIFTKQRIDFTPSERITSLVVSSNQLCMSLGKDTLLRIDLGKANEPNHVELGRKDDAKVHKMFLDHTGSHLLIALSSTEVLYVNRNGQKVRPLARWKGQLVESVGWNKALGTESSTGPILVGTAQGHIFEAELSASEGGLFGPAPDLYFRPLYVLNEEGGPAPVCSLEAERGPDGRSFVIATTRQRLFQFIGRAAEGAEAQGFSGLFAAYTDHPPPFREFPSNLGYSELAFYTPKLRSAPRAFAWMMGDGVLYGALDCGRPDSLLSEERVWEYPEGVGPGASPPLAIVLTQFHFLLLLADRVEAVCTLTGQVVLRDHFLEKFGPLKHMVKDSSTGQLWAYTERAVFRYHVQREARDVWRTYLDMNRFDLAKEYCRERPDCLDTVLAREADFCFRQRRYLESARCYALTQSYFEEIALKFLEARQEEALAEFLQRKLASLKPAERTQATLLTTWLTELYLSRLGALQGDPEALTLYRETKECFRTFLSSPRHKEWLFASRASIHELLASHGDTEHMVYFAVIMQDYERVVAYHCQHEAYEEALAVLARHRDPQLFYKFSPILIRHIPRQLVDAWIEMGSRLDARQLIPALVNYSQGGEVQQVSQAIRYMEFCVNVLGETEQAIHNYLLSLYARGRPDSLLAYLEQAGASPHRVHYDLKYALRLCAEHGHHRACVHVYKVLELYEEAVDLALQVDVDLAKQCADLPEEDEELRKKLWLKIARHVVQEEEDVQTAMACLASCPLLKIEDVLPFFPDFVTIDHFKEAICSSLKAYNHHIQELQREMEEATASAQRIRRDLQELRGRYGTVEPQDKCATCDFPLLNRPFYLFLCGHMFHADCLLQAVRPGLPAYKQARLEELQRKLGAAPPPAKGSARAKEAEGGAATAGPSREQLKADLDELVAAECVYCGELMIRSIDRPFIDPQRYEEEQLSWL
B7: CHMP4B (protein, UniProt Q9H444 1-224)
chain: MSVFGKLFGAGGGKAGKGGPTPQEAIQRLRDTEEMLSKKQEFLEKKIEQELTAAKKHGTKNKRAALQALKRKKRYEKQLAQIDGTLSTIEFQREALENANTNTEVLKNMGYAAKAMKAAHDNMDIDKVDELMQDIADQQELAEEISTAISKPVGFGEEFDEDELMAELEELEQEELDKNLLEISGPETVPLPNVPSIALPSKPAKKKEEEDDDMKELENWAGSM

Amino acid sequences for entries named in this document (tags omitted).
UniProt Q86T03: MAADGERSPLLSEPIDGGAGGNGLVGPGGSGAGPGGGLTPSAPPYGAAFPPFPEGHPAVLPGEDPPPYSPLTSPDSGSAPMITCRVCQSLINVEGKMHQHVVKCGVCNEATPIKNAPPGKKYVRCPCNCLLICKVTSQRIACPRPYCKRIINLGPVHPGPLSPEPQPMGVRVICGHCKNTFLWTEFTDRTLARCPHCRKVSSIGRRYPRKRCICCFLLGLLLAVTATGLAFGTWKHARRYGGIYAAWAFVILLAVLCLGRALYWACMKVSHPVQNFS

What follows are binders tested against TMEM55B-GFP-WT full length (FL) (human) (UniProt Q86T03) (assay: affinity purification with mass spectrometry; U2OS cells infected with adenovirus expressing TMEM55B-WT-GFP or TMEM55B-P66A-GFP, with or without 300 uM NaAsO2 for 2 h; lysates immunoprecipitated with GFP beads, SDS-PAGE, gel bands digested, Orbitrap Fusion Lumos).

binding, binds:
B1, B2, B3, B4, B5, B6, B7

Reference: article PMC10761734
